In publication doi:10.1101/2020.06.07.138792 one finds binding data, which are given here for three substances.

By UniProt entry, the sequences of proteins in these tests, tags left out.
UniProt Q13547: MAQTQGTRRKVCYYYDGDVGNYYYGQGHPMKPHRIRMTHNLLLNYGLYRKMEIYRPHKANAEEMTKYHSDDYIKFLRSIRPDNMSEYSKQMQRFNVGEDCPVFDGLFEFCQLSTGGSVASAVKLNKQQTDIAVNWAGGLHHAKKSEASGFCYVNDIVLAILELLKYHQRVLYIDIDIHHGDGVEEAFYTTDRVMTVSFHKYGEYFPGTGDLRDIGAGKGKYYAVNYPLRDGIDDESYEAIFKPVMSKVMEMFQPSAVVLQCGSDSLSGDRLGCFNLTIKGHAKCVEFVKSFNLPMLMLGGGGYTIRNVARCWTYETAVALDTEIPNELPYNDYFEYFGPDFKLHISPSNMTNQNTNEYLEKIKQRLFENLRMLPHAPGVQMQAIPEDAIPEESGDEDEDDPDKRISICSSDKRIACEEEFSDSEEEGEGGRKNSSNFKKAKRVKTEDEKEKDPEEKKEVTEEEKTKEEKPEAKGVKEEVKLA
UniProt Q92769: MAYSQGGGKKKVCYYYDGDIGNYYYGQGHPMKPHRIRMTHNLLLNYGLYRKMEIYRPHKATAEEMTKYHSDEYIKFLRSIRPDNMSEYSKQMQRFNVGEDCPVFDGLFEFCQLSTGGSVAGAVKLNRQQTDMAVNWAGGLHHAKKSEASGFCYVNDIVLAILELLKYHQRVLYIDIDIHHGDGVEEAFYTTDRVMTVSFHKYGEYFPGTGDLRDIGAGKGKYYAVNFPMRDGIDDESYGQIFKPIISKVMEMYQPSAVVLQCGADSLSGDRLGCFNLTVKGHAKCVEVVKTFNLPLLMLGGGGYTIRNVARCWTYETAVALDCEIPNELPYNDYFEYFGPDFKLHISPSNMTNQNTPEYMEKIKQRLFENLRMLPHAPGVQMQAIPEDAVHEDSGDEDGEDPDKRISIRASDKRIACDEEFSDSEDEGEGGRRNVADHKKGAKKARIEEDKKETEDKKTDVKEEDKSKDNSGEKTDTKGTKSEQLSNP
UniProt Q14839: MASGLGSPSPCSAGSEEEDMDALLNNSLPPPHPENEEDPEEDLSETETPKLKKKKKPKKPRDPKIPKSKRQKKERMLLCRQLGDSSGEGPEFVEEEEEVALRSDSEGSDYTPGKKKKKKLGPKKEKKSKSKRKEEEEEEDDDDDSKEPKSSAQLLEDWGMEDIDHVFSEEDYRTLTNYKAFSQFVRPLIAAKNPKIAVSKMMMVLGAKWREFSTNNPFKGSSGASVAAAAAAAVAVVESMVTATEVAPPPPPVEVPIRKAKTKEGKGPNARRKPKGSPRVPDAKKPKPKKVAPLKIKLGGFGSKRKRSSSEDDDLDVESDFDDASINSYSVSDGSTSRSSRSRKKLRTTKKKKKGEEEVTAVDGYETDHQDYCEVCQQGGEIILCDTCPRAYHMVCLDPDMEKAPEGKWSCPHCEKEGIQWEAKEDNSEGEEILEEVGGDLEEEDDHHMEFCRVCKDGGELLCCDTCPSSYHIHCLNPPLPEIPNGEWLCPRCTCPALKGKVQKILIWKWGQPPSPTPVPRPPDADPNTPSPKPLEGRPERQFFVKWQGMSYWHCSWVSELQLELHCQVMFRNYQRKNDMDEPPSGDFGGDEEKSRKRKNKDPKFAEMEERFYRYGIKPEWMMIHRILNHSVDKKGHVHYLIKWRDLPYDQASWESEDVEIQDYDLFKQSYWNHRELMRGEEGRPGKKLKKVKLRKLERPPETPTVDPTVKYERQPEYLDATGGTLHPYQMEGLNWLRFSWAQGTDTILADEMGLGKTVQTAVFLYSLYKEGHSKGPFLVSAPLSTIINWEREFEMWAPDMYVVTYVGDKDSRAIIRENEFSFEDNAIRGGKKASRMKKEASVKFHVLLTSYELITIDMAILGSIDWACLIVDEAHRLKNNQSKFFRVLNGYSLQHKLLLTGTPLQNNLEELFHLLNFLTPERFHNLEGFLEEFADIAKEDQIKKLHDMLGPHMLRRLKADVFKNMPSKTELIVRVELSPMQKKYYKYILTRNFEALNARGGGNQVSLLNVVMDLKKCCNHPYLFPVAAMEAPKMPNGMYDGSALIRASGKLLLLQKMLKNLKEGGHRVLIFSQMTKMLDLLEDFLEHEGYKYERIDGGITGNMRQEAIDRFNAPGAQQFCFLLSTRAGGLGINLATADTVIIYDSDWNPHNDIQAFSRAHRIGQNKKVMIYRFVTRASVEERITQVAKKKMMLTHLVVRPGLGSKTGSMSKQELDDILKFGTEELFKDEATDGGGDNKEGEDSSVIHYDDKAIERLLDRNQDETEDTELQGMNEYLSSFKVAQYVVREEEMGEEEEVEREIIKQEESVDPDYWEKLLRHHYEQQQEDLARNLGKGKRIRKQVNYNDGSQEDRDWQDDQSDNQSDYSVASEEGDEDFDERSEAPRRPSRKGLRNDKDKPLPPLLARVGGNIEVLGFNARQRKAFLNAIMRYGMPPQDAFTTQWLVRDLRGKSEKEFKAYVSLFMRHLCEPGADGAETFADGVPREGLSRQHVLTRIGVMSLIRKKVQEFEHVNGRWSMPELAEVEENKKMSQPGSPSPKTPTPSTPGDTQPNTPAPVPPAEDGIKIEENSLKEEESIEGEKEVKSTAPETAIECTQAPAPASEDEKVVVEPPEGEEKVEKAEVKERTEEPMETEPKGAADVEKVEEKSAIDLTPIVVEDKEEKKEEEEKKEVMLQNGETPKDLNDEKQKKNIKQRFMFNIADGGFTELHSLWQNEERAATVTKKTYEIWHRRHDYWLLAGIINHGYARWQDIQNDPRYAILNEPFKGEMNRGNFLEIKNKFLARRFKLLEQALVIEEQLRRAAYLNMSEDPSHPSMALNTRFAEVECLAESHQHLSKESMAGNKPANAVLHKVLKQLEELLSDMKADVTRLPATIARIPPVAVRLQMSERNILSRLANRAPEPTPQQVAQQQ

No constants are given. Whether binding was seen depends on the method and setting. Binding seen in cells or lysates may run through a third protein. Some entries that bind do so weakly or less than the wild type.

The target of the assay is T1, endogenous TyrRS (human (endogenous in HEK293)) (UniProt P54577).
T1 sequence: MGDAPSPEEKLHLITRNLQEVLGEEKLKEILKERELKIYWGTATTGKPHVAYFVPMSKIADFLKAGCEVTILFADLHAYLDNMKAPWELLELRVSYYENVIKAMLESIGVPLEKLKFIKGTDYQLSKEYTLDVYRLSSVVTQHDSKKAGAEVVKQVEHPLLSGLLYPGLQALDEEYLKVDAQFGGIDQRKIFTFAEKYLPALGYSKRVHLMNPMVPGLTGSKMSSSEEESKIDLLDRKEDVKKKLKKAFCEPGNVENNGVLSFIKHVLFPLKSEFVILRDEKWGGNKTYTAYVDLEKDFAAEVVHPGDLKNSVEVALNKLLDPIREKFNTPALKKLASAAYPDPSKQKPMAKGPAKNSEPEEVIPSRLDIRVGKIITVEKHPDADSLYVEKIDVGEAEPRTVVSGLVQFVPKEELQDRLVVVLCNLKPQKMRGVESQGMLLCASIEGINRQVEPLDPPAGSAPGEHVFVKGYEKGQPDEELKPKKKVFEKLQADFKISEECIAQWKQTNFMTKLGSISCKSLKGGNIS
In words: co-IP.

“HDAC1 (from UniProt Q13547 1-482) (enzyme)”: the binding result was “binds”.

As for “HDAC2 (from UniProt Q92769 1-488) (enzyme)”, the binding result was “binds”.

For CHD4 (from UniProt Q14839 1-1912), the binding result was “binds”.
